Substitutions are numbered along the chain they refer to. These are yes or no findings as the source states them, for the method shown. Some entries that bind do so weakly or less than the wild type. Where a sequence is shown, tags or fusion partners need not be part of it.

Drawing on patent US20170029524A1, this text covers binding for two molecules.

Assay [1] deals with T1, human CD99/Fc fusion protein (human) (UniProt P14209).
T1 sequence (looked up): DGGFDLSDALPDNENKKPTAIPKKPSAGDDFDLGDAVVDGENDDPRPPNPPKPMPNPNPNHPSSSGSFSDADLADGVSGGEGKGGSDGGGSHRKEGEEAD
Description: ELISA, coated human CD99/Fc, anti-human kappa-HRP.

Assay [2] addresses T1, human CD99/Fc fusion protein (human). Description: ELISA, coated human CD99/Fc. In general terms: In an ELISA, binding on a coated surface is turned into a signal by an enzyme label.
The target is the same in assay [3]. The experiment in a line: ELISA.

B1: humanized 12E7-G1 (antibody, V domains shown)
VH: QVQLVQSGAEVKKPGASVKVSCKASGYTFKDTYIHWVRQAPGQGLEWMGRIDPANGNTKYDPKFQGRVTMTRDTSISTAYMELSRLRSDDTAVYYCARRGGVDWGQGTLVTVSS
VL: DIVMTQTPLSLSVTPGQPASISCKSSQSLLDGDGKTYLNWLLQKPGQSPQRLIYLVSKLDSGVPDRFSGSGSGTDFTLKISRVEAEDVGVYYCWQGTHFPRTFGQGTKLEIK
Take B1: the binding entry in assay [1], in assay [2] and in assay [3] was “binds” throughout.

B2: Hu12E7-2-G1 (antibody, V domains shown)
VH: B1 VH with Y27F, T28N, F29I
VL: B1 VL
With B2, the binding result in assay [3] was “binds”.
